Data from US20250145697A1 (WASHINGTON UNIVERSITY, published 2025).
Results are given in words; binding and its absence hold for the method and conditions named. Some binding calls cover weakened binding; strength is not graded here.

Amino acid sequences for entries named in this document (tags omitted). A change or cut given only in a name is not applied to a line headed by its entry. Chains listed by the source or under a name are the forms on record and can include a tag or linker.
ApoE derived from human plasma lipoprotein (P02649, form named): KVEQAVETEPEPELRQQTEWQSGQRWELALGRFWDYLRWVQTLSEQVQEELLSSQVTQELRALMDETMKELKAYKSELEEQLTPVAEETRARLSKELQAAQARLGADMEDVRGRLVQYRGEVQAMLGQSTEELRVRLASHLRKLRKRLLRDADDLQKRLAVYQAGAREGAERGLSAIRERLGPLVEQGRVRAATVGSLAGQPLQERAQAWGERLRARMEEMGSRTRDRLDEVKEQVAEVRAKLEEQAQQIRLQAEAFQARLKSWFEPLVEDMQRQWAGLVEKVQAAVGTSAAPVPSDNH

Target: HJ153
Test: competition ELISA: 4 nM antibody pre-incubated 1 h with dilutions of E4+ human plasma, then on plate coated with recombinant ApoE4 (0.5 ug/mL) as competitor; anti-mouse IgG-HRP, OD450

ApoE derived from human plasma lipoprotein (from UniProt P02649 19-317) (ligand)
binding: binds
